The campaign covered roughly 1,400 compounds. Fewer than 10 were called active.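 How the source made its calls: active means fluorescence-lowering compounds whose fitted half-maximal concentration is at or below ten times the highest valid dose tested; inconclusive means flat curve at 30 to 70% inhibition, or poor fit; inactive means the rest.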 The list shows a part of the results.
The compounds below were run against Histone deacetylase 3 (Homo sapiens) (UniProt O15379) (assay: inhibition of human HDAC3 enzymatic activity – biochemical, fluorescence, cherry-picked samples, counter-screen for JMJD2C/GASC1 demethylase inhibitor project, dose response (AID 485318;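 further: enzyme preincubated with compound before substrate and trypsin were added; 0% = neutral control wells and -100% = SAHA positive control wells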)). Settings: recombinant HDAC3, fluorogenic peptide/trypsin coupled; at 12 µM (top of the series).

Amino acid sequences for entries named in this document (tags omitted). A change or cut given only in a name is not applied to a line headed by its entry.
UniProt O15379: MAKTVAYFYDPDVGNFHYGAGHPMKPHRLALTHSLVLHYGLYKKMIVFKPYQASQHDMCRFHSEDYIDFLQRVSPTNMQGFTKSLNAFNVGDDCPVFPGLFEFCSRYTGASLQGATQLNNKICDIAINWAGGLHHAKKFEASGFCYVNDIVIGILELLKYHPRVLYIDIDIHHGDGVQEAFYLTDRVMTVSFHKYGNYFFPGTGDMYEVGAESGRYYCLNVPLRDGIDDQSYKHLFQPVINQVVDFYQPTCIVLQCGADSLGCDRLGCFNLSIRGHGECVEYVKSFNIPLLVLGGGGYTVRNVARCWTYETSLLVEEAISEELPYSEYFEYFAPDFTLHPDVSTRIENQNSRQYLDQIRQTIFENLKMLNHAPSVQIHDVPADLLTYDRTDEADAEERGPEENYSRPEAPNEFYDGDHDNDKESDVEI

| SMILES | activity change, negative = inhibition |
| --- | --- |
| C[C@@]12C(=O)Nc3ccc(Cl)cc3C(=O)N1[C@H]1c3cc(Br)ccc3OC[C@@H]1[C@@H]2c1ccccc1 | inactive: -0.886% |
| CN(c1ccc(OCC(=O)N2CCCCC2)cc1)S(=O)(=O)c1cccs1 | inactive: -0.149% |
| O=C(C/C=N/OCc1ccc(Cl)cc1Cl)c1ccccc1 | inactive: 0.293% |
| N#Cc1c(N2CCCCC2)nc(N)c2c(N)nc(SCC(=O)O)cc12 | inactive: 0.727% |
| Cc1ccc(NC(=O)COC(=O)CCc2c[nH]c(=O)[nH]2)cc1 | inactive: 0.364% |
| O=c1c2ccccc2nc2c3ccccc3c(NCc3ccco3)nn12 | inactive: 0.625% |
| CN(C(=O)c1ccc(Cl)c([N+](=O)[O-])c1)C1(C)CCS(=O)(=O)C1 (stereo unspecified) | inactive: -0.387% |
| Cc1cc(N2CCN(c3ccccc3)CC2)nc(-c2ccccc2)n1 | inactive: 0.329% |
| Cc1ccc2c(c1)N(CC(=O)NCC1CCCO1)C(=O)C(C(C)C)O2 (stereo unspecified) | inactive: 0.242% |
| CCC(C)NC(=S)N1CCN(C)CC1 (stereo unspecified) | inactive: -0.0122% |
| COc1ccc(OC)c(Nc2nnc(C)c(=O)[nH]2)c1 | inactive: -0.0817% |
| CCCc1cc(=O)[nH]c(SCC(=O)Nc2cc(S(=O)(=O)N(CC)c3ccccc3)ccc2Cl)n1 | inactive: 0.138% |
| COc1ccc(-c2ccc3oc(-c4ccsc4)cc(=O)c3c2)cn1 | inactive: 0.0488% |
| COc1cccc(NC(=O)COC(=O)c2ccc(S(=O)(=O)NCc3ccco3)cc2)c1 | inactive: 0.629% |
| NC(=S)Nc1ccc(Cl)cc1Cl | inactive: 0.172% |
| Cc1ccc(NC(=O)C2C3CCCC2C3c2ccccc2)cc1C (stereo unspecified) | inactive: 0.0447% |
| Cn1nnc(NC(=O)CSc2ccc(Cl)cc2)n1 | inactive: 0.42% |
| COC(=O)[C@@H](N)Cc1ccc(O)c(O)c1 | inactive: 0.773% |
| COc1ccc(-n2cc(C(=O)O)c3ccccc3c2=O)cc1 | inactive: 0.371% |
| Cc1occc1-c1nnc(SCC(=O)c2c[nH]c3ccccc23)n1C | inactive: -0.0822% |
| COc1cccc2c1nc(C)c1cc(C)oc12 | inactive: -0.255% |
| Oc1ccc(C2Nc3cccc4cccc(c34)N2)cc1 | inactive: 0.811% |
| O=C(O)c1cc2cc(Cl)ccc2oc1=O | inactive: 0.621% |
| C[C@H](CO)N1C[C@H](C)[C@@H](CN(C)Cc2ccc3c(c2)OCO3)Oc2c(NC(=O)C3CCCCC3)cccc2C1=O | inactive: -0.26% |
| CCn1c(SCC(=O)Nc2nc(C)cs2)nnc1-c1ccncc1 | inactive: -0.0423% |
| Cc1cccc(NC(=O)/C(=C\c2ccc([N+](=O)[O-])o2)NC(=O)c2ccc(Cl)cc2)c1 | inactive: -0.108% |

Reprinted at random: two compounds from above

| SMILES | activity change, negative = inhibition |
| --- | --- |
| Cc1cc(N2CCN(c3ccccc3)CC2)nc(-c2ccccc2)n1 | inactive: 0.329% |
| CCn1c(SCC(=O)Nc2nc(C)cs2)nnc1-c1ccncc1 | inactive: -0.0423% |

Source: PubChem BioAssay AID485318 (Broad Institute, 2010)
